Each structure is given as a SMILES string. The list shows a part of the results.

In this assay the test system is T1, CTL2-GFP (C. trachomatis L2/434/Bu, GFP-expressing).
T1 construct: L2/434/Bu, GFP-expressing
Also on record: species or system HeLa; Intracellular C. trachomatis growth in HeLa cells, bulk GFP fluorescence relative to DMSO. Conditions: bulk GFP, single well; 28.5 h, 10 µM; inhibitor.
Regarding `Cc1ccccc1NC(=O)c1cnc2n(c1=O)CCS2` [CBK287374], the “% of control remaining” value is listed as 113.95%. Regarding `Cc1ccccc1OCc1nnc(SCC(=O)c2ccc3c(c2)Cc2ccccc2-3)n1C` [CBK265829], the “% of control remaining” value is on record as 159.931%. `CCc1ccc(CN(C)C(=O)COC(=O)c2cc(-c3ccccc3)nc3onc(C)c23)cc1` [CBK295334]: the “% of control remaining” value is 109.127%. Regarding `COc1cccc(CC(=O)N2CCC(Cc3ccccc3-c3cccs3)(C(N)=O)CC2)c1` [CBK285908], the “% of control remaining” value is 108.971%. Turning to `Cc1ccn(-c2ccc(N3CCNCC3)nn2)n1` [CBK304680], the “% of control remaining” value turned out to be 143.125%.

As for `CCc1cccc(C)c1NC(=O)CN(c1ccc(Br)c(C)c1)S(C)(=O)=O` [CBK267935], the “% of control remaining” value came out at 133.598%. As for `O=C(Cc1ccccc1)N1CCC(c2nc3ccccc3s2)CC1` [CBK070145], the “% of control remaining” value was determined as 95.4231%. In the case of `Cc1cccc(Oc2ccccc2NS(=O)(=O)c2ccc3c(c2)N(CC(=O)O)C(=O)CO3)c1` [CBK295287], the “% of control remaining” value is 130.099%. With `C[C@H]1CN2C[C@H](O)CC2CN1Cc1ccc(Br)s1` (some centres unmarked) [CBK285439] the figure was 107.687%. With `O=C1c2ccccc2C(=O)N1CCN1CCN(Cc2ccccc2)CC1` [CBK074813] the figure was 102.049%; with `COc1ccc(OC)c(-n2c(=O)[nH]c3ccccc3c2=O)c1` [CBK287825], 94.1073%; with `CC(C)Nc1cc(OCCCc2ccncc2)ncn1` [CBK115886], 88.9852%. For the compound `O=C(O)c1ccc(CN2C(=O)COc3ccccc32)o1` [CBK270276], the “% of control remaining” value is on record as 136.526%. Take `Cn1cc(CN[C@@H]2CCC(=O)N[C@H]2c2cc(F)cc(F)c2)cn1` [CBK282913]: the “% of control remaining” value came to 102.022%.

Consider `CC(=O)Nc1ccc(NC2SC(=O)N(c3ccccc3)C2=O)cc1` (centres unmarked) [CBK085110], for which the “% of control remaining” value is 126.144%.

`CCc1c(C)nc(SC(C(=O)O)c2ccccc2)c(C#N)c1C` (centres unmarked) [CBK270174]: the “% of control remaining” value is reported as 113.98%. With `CC(=O)Nc1cccc(-c2cncc(NCCc3ccccn3)n2)c1` [CBK065359], the “% of control remaining” value is on record as 120.03%.

On to `CCc1nc(CN2CCCC(NCc3ccc(C(N)=O)cc3)C2)no1` (centres unmarked) [CBK305373], for which the “% of control remaining” value came out at 129.72%. For the compound `C(=N\N=C(/c1ccccc1)C12CN3CN(CN(C3)C1)C2)/c1ccc2c(c1)OCO2` [CBK261816], the “% of control remaining” value is listed as 105.033%. As to `CCOC(=O)N1CCN(CCC(=O)Nc2ccc3c(c2)CCC3)CC1` [CBK264220], the “% of control remaining” value worked out at 113.924%. In the case of `Cc1n[nH]c(C)c1Sc1n[nH]c(=O)[nH]c1=O` [CBK027833], the “% of control remaining” value is reported as 100.726%. For `CC1=NN(c2ccccc2)C(=O)/C1=C1/C(=O)Nc2c(C)cc(Br)cc21` [CBK263950], the “% of control remaining” value stood at 114.823%. With `Cc1cc(Cl)cc(Cl)c1S(=O)(=O)Nc1nc(-c2cccnc2)cs1` [CBK200035], the “% of control remaining” value is given as 70.9568%. On to `CC1CCN(Cc2ccc(-c3ccc(CC(=O)NCc4ccc(C#N)cc4)cn3)cc2)CC1` [CBK158409], for which the “% of control remaining” value turned out to be 122.629%. Take `Cc1nc(CC(=O)N2CCCC(c3cccc(Cc4ccc(Cl)cc4)n3)C2)cs1` (centres unmarked) [CBK286505]: the “% of control remaining” value was found to be 92.8822%.

With `CC(C)CN1CCC2(CC=CCN(Cc3ccc(F)cc3)C2=O)CC1` [CBK285521], the “% of control remaining” value is 94.5941%. As to `Cn1c(=O)n(CC(=O)OCc2ccccc2)c2cccnc21` [CBK284019], the “% of control remaining” value is given as 131.008%. In the case of `COc1ccc(Cc2cccc(C3CCN(C(=O)Cc4ccc(F)cc4)CC3)n2)cc1` [CBK286225], the “% of control remaining” value was 91.8681%. As to `CN1CCN(c2ccc(S(=O)(=O)Nc3cc(C(=O)O)cc(C(=O)O)c3)cc2[N+](=O)[O-])CC1` [CBK263862], the “% of control remaining” value worked out at 99.8034%. Consider `Cc1ccc(C)c(NC(=O)C(C)Sc2nc3ccccc3nc2C)c1` (centres unmarked) [CBK296744], for which the “% of control remaining” value amounted to 106.93%. With `N#Cc1cnc2ccccc2c1N1CCC(C(=O)O)CC1` [CBK288050] the figure was 125.161%; with `Nc1ccc2cc(-c3ccsc3)cnc2n1` [CBK081167], 107.095%. For `COc1cc(CNc2cncc(-c3cccc(NC(C)=O)c3)n2)cc(OC)c1OC` [CBK066133], the “% of control remaining” value came to 196.1%. With `Oc1cccc(-c2cn3ccnc3c(NC3CC3)n2)c1` [CBK038076] the figure was 86.794%. The value for `Cc1nc(C)c(C(=O)N2CCCC(c3cc4cccnc4[nH]3)C2)s1` (centres unmarked) [CBK284995] was 84.5197%; that for `CC1Cc2ccccc2N1C(=O)c1nn(C)cc1I` (centres unmarked) [CBK058268] was 143.677%; that for `COc1ccc(CNC(=O)c2cc(S(=O)(=O)N(C)C)cs2)cc1` [CBK307579] was 134.162%.

Regarding `CN(C)S(=O)(=O)c1ccc(C(=O)C2=C(O)C(=O)N(Cc3cccnc3)C2c2ccncc2)cc1` (centres unmarked) [CBK264714], the “% of control remaining” value is on record as 112.894%. Turning to `Cc1onc(-c2ccccc2)c1C(=O)NCCCn1ccnc1` [CBK262870], the “% of control remaining” value turned out to be 117.356%. Turning to `CCCn1c(SCC(=O)N2c3ccc(F)cc3CCC2C)nnc1-c1cccnc1` (centres unmarked) [CBK059187], the “% of control remaining” value was determined as 122.388%. For the compound `CCCN(CC1CC1)C(=O)CC1SC(NCC2CCCCC2)=NC1=O` (centres unmarked) [CBK067014], the “% of control remaining” value is 89.7715%.

On to `COc1cccc(C(=O)N2CCOC(c3cc(C(=O)NCC(C)C)c4ccccc4n3)C2)c1` (centres unmarked) [CBK285894], for which the “% of control remaining” value was determined as 139.854%.

With `CCN1CCN(C(=O)Cc2cccnc2)CC1` [CBK200375], the “% of control remaining” value is given as 107.007%.

Turning to `CN(C)c1cccc(-c2cnc3[nH]c(=O)n(CCCO)c3n2)c1` [CBK065052], the “% of control remaining” value is reported as 98.6969%. The value for `c1ccc(C2(CN3CCN(Cc4cccnc4)CC3)CC2)cc1` [CBK282793] was 99.7803%; that for `Cc1cc(COc2ccc(C(F)(F)F)cn2)no1` [CBK115792] was 114.721%. Regarding `CC(=O)Nc1cccc(-c2nccnc2C2CCCN(CCc3ccccc3)C2)c1` (centres unmarked) [CBK286128], the “% of control remaining” value came to 104.169%. Regarding `CC(CN(C)C(=O)c1c[nH]nn1)Oc1ccc(Cl)c(Cl)c1` (centres unmarked) [CBK306160], the “% of control remaining” value is on record as 132.381%. With `Cc1cc(NN(Cc2ccccc2)Cc2ccccc2)n2c(nc3ccccc32)c1C#N` [CBK262666] the figure was 100%; with `Nc1nc(COc2ccc(F)cc2)nc(N2CCOCC2)n1` [CBK288183], 98.7251%.

The values above are taken from publication PMC12040169 (PLOS Biology, 2025).
